Experimental data reported in the supplement of paper PMC5949888.
Most values lie at the floor of the assay. Slopes are relative: functional sequences can read slightly below zero.

Test system: Saccharomyces cerevisiae PS128 hsf1 delta, HSF1(1-493) fusion
Experiment: growth estimate (transactivation domain function in HSF1 fusion, heat-shock survival) (a.u. (slope of normalised read count over time)); higher = stronger growth at 37°C, i.e. more transactivation activity
Conditions: library: random library
Procedure: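 Random 60-nt DNA library encoding peptides of up to 20 aa, fused to the C-terminus of yeast HSF1 residues 1-493 (C-terminal TAD deleted) and expressed from the native HSF1 promoter on a CEN plasmid in hsf1-deleted S. cerevisiae PS128. Cells were selected at 37°C on -trp 5-FOA plates for 0, 2, 4, 6 and 8 days and amplicons were sequenced. Growth estimate is the slope of a robust linear fit of total-sum-normalised read counts (normalised to the first time point) over time, using at least 2 replicates. Sequences are classed functional (TAD activity) above a threshold of -0.13, set from stop-codon control sequences.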

| Substance | growth estimate |
| --- | --- |
| DLKIVGLTPA | < -0.25 |
| DLLRMTPACGVTVRCGYIPT | < -0.25 |
| DLMAAQKVDGVRCSIVILIP | < -0.25 |
| DLMDSTVSYSSP | < -0.25 |
| DLNCAHAPSALVATCPPLTC | < -0.25 |
| DLNSLRC | < -0.25 |
| DLPCSVSCWLDRV | < -0.25 |
| DLQK | < -0.25 |
| DLQTRQIS | < -0.25 |
| DLR | < -0.25 |
| DLRAKGVNVRRAILDHVTRT | < -0.25 |
| DLRCGS | < -0.25 |
| DLRGIS | < -0.25 |
| DLRKRIGEHVTRQPTSCGEA | < -0.25 |
| DLRTWFLLAWTM | < -0.25 |
| DLSEMLLPQVLPR | < -0.25 |
| DLSVHPGARRSSGRPDFNFG | < -0.25 |
| DLSWDQLAVIEPRFALKGPG | < -0.25 |
| DLTPAARLAIASPEGSMNRV | < -0.25 |
| DLTWAPICGPHEHGHACASS | < -0.25 |
| DLTYCQTGSSWLINRRLWGW | < -0.25 |
| DLVARHAMSLFAESLRRPTT | < -0.25 |
| DLVHRLTKLVGICNAQRAVS | < -0.25 |
| DLVHRPVAQHYRVCVCRSSV | < -0.25 |
| DLVSRSMATV | < -0.25 |

| Substance | growth estimate |
| --- | --- |
| DLWSLEAVERTAPTKPGPKE | < -0.25 |
| DMA | < -0.25 |
| DMERVGEGVVAKLSIQHF | < -0.25 |
| DMKANHPDRKVDGQSGTALR | < -0.25 |
| DML | < -0.25 |
| DMLFRDVCDNAELHKIVYQI | < -0.25 |
| DMRGSKRYPMKVSFYTCVNR | < -0.25 |
| DNALCSNDGRDATSGQISFR | < -0.25 |
| DNEHDRS | < -0.25 |
| DNEVKF | < -0.25 |
| DNGAQFEEVNGAR | < -0.25 |
| DNHMPDGYCGRSFGTVYDRG | < -0.25 |
| DNINQVSQG | < -0.25 |
| DNLRSQRG | < -0.25 |
| DNPWV | < -0.25 |
| DNRNADL | -0.248 |
| DNW | < -0.25 |
| DPAGWANRLPWETFLSFRYS | < -0.25 |
| DPAYGDKDICEWTYCVKLQI | < -0.25 |
| DPFGTKRCRFQVTFLYPTLF | < -0.25 |
| DPGDHVLHYMYEPLNKREEH | < -0.25 |
| DPGEGLAEQRFEVK | < -0.25 |
| DPGS | < -0.25 |
| DPIGLRHRAETPASLR | < -0.25 |
| DPK | < -0.25 |

Quoted at random: 5 records from the list.

| Substance | growth estimate |
| --- | --- |
| DMRGSKRYPMKVSFYTCVNR | < -0.25 |
| DMA | < -0.25 |
| DNLRSQRG | < -0.25 |
| DPK | < -0.25 |
| DPFGTKRCRFQVTFLYPTLF | < -0.25 |

Next results follow:

| Substance | growth estimate |
| --- | --- |
| DPPAAL | < -0.25 |
| DPPI | < -0.25 |
| DPPSSQRHPYPTAYH | < -0.25 |
| DPQKAVTAGACSFRGGSARA | < -0.25 |
| DPRAS | < -0.25 |
| DPREESKYGTIGPSLWASSS | < -0.25 |
| DPRKSV | < -0.25 |
| DPRQQVTLYRRSDRTGIGVR | < -0.25 |
| DPRVCVVGYACL | < -0.25 |
| DPTFRATCMGTLHVPPLGK | < -0.25 |
| DPVLRVGGETPVSQAFRAWI | < -0.25 |
| DPVRKHAARSGLDVRIKHNN | < -0.25 |
| DPWV | 0.016 |
| DQDST | < -0.25 |
| DQHMFS | < -0.25 |
| DQIPLRDESWGRTPQDNLTR | < -0.25 |
| DQITSFTPRMKHTNSWTSCE | < -0.25 |
| DQIYGASGSVKGHGGHPHYL | -0.239 |
| DQLG | < -0.25 |
| DQRTRRGASSQYQ | < -0.25 |
| DQSHESPRYKSTLGLRWHAC | < -0.25 |
| DQTRGLKSFILGTRIGLGYP | < -0.25 |
| DQV | < -0.25 |
| DQVPKP | -0.145 |
| DQYRAPKSHFLRDLSIGIRT | < -0.25 |

| Substance | growth estimate |
| --- | --- |
| DRAGANDLAGGHQLLAEFYL | < -0.25 |
| DRAQEQ | < -0.25 |
| DRAYSFRRLNGTLEHEMSLD | < -0.25 |
| DRDLIDLTGRGI | < -0.25 |
| DRDSELNRHGVTIVFPRIAG | < -0.25 |
| DREHD | < -0.25 |
| DRFSRR | < -0.25 |
| DRGESQAN | -0.243 |
| DRGRARARPEPKARPSAERK | < -0.25 |
| DRHVHCSRNLRIARACLDGS | < -0.25 |
| DRKCHLVPYGLSS | < -0.25 |
| DRLSQSWEGTPQGA | < -0.25 |
| DRM | < -0.25 |
| DRNAGEKARVSSLLARGSAL | < -0.25 |
| DRNGNGPKVF | < -0.25 |
| DRPASTG | < -0.25 |
| DRPCAMAKA | < -0.25 |
| DRPGTHLHEGWCDRPQNVWG | < -0.25 |
| DRPRGQKQVPG | < -0.25 |
| DRPSCVQGLRL | < -0.25 |
| DRPSS | < -0.25 |
| DRQLRIGVW | < -0.25 |
| DRRDLVGMLHNEPQAPQQQP | < -0.25 |
